These are yes or no findings as the source states them, for the method shown. Some binding calls cover weakened binding; strength is not graded here.

Among the data in patent US20200040069A1 are binding values, retold here.

For the experiment, the target named is T1, pro-EMAPII protein (recombinant pro-EMAP II, Examples 1 and 10) (Mus musculus (Mouse)) (UniProt P31230).
T1 sequence: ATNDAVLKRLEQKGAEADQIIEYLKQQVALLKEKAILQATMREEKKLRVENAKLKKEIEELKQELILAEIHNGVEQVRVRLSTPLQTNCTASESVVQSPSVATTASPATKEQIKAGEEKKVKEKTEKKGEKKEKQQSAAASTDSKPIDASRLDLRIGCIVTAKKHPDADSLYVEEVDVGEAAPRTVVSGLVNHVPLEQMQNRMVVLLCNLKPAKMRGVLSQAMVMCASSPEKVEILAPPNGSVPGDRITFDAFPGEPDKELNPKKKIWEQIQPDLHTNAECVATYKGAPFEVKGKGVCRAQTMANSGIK
The experiment can be described thus: ELISA of hybridoma supernatants. A general note: In an ELISA, binding on a coated surface is turned into a signal by an enzyme label.

B1: rat antibody hybridoma clone M7/1 (EMAP II neutralizing M7/1 antibody) (antibody, V domains shown)
VH: AVHLVESGGGFVQPTESLKISCAASGFTFSDAAMYWVRQAPGKGLEWVARIRTKPNNYATYYADSVKGRFTISRDDSKSMVYLQMDNLKTEDTAMYYCTSWSYDFDYWGQGVMVTVSS
VL: DIVMTQGALPNPVPSGESASITCQSSKSLLHSSGKTYLNWYLQRPGQSPHLLIYWMSTRASGVSDRLSGSGSGTDFTLKISSVEAEDVGVYYCQQFLEYPLTFGSGTKLEIK
For the molecule B1, the binding entry was “binds”.
